Measurements reported in PubChem BioAssay AID1224829 (NIAID, 2016).
In all, the deposit lists about 3,800 reagents; shown is a random part of them. 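Calls cover raised and lowered translocation; gene median uses one vendor's three siRNAs; qiagen siRNAs acted more weakly than ambion siRNAs.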 A number with no mark means an inactive call. The numbers tell different reagents against one gene apart. Further read-outs or replicates are left out here.

- Aim: 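Follow-up of TLR4-NF-kappaB regulators using six separate siRNAs for each gene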 (follow-up of hits)
- Cells: mouse RAW264.7 G9 macrophage reporter cells
- Knock-down reagent: single siRNA against mouse genes, 100 nM
- Duration: 2 days of siRNA knock-down, then 40 min of LPS before fixing
- Conditions: LPS (Salmonella minnesota R595) at 10 ng/ml
- Measurement: 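High-content images after 40 min LPS exposure; GFP-p65 nucleus to surrounding ring signal ratio, normalised to plate median and non-targeting control wells, expressed as z-score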
- Reading the numbers: p65 translocation z-score: higher = more nuclear NF-kappaB p65 after LPS
- Rule for the call: 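Active means the replicate-mean z-score lies beyond plus or minus 2, in either direction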
- Meaning of the calls: active = changed p65 translocation (either direction); inactive = no clear change

no.	gene symbol	reagent	siRNA vendor or control pool	p65 translocation z-score, replicate mean	p65 translocation z-score, replicate 1
1	Spag1	1	ambion single siRNA	-2.57 (active)	-1.68
2	Spag1	2	ambion single siRNA	-7.15 (active)	-7.99
3	Spag1	3	ambion single siRNA	-3.9 (active)	-4.93
4	Spag1	4	qiagen single siRNA	-0.835	0.43
5	Spag1	5	qiagen single siRNA	-2.55 (active)	-2.55
6	Spag1	6	qiagen single siRNA	-6.77 (active)	-6.77
7	Cela2a	1	ambion single siRNA	1.12	2.44
8	Cela2a	2	ambion single siRNA	-0.569	-0.72
9	Cela2a	3	ambion single siRNA	1.14	2.33
10	Cela2a	4	qiagen single siRNA	0.852	-0.329
11	Cela2a	5	qiagen single siRNA	0.79	1.39
12	Cela2a	6	qiagen single siRNA	-3.21 (active)	-3.21
13	Dock2	1	ambion single siRNA	0.251	0.352
14	Dock2	2	ambion single siRNA	-2.92 (active)	-2.13
15	Dock2	3	ambion single siRNA	-3.68 (active)	-4.17
16	Dock2	4	qiagen single siRNA	1.31	0.558
17	Dock2	5	qiagen single siRNA	-0.295	-0.892
18	Dock2	6	qiagen single siRNA	-0.906	-1.68
19	Or1j4	1	ambion single siRNA	-0.217	-1.77
20	Or1j4	2	ambion single siRNA	-2.2 (active)	-1.69
21	Or1j4	3	ambion single siRNA	-3.91 (active)	-3.86
22	Or1j4	4	qiagen single siRNA	-0.209	-0.612
23	Or1j4	5	qiagen single siRNA	-1.04	-1.51
24	Or1j4	6	qiagen single siRNA	0.2	-0.422
25	Dnm2	1	ambion single siRNA	1.31	0.613
26	Dnm2	2	ambion single siRNA	-1.18	-1.56
27	Dnm2	3	ambion single siRNA	-0.384	1.16
28	Dnm2	4	qiagen single siRNA	1.4	1.79
29	Dnm2	5	qiagen single siRNA	-0.474	-1.76
30	Dnm2	6	qiagen single siRNA	-0.343	-1.25
31	Prpf39	1	ambion single siRNA	-1.86	-1.25
32	Prpf39	2	ambion single siRNA	-1.49	-1.67
33	Prpf39	3	ambion single siRNA	-1.32	1.02
34	Prpf39	4	qiagen single siRNA	3.53 (active)	2.91
35	Prpf39	5	qiagen single siRNA	1.9	0.796
36	Prpf39	6	qiagen single siRNA	0.226	-0.207
37	Pepf	1	ambion single siRNA	-3.34 (active)	-3.29
38	Pepf	2	ambion single siRNA	-1.74	-1.37
39	Pepf	3	ambion single siRNA	0.241	0.241
40	Pepf	4	qiagen single siRNA	1.89	1.89
41	Pepf	5	qiagen single siRNA	-3.07 (active)	-3.07
42	Pepf	6	qiagen single siRNA	-4.35 (active)	-4.35
43	Hhat	1	ambion single siRNA	-0.952	-0.753
44	Hhat	2	ambion single siRNA	-3.06 (active)	-4.08
45	Hhat	3	ambion single siRNA	-0.667	-0.678
46	Hhat	4	qiagen single siRNA	1.07	1.39
47	Hhat	5	qiagen single siRNA	-2.51 (active)	-2.51
48	Hhat	6	qiagen single siRNA	-1.47	-1.47
49	Tnfrsf25	1	ambion single siRNA	0.588	1.07
50	Tnfrsf25	2	ambion single siRNA	-1.77	-0.941
51	Tnfrsf25	3	ambion single siRNA	-3.06 (active)	-3.52
52	Tnfrsf25	4	qiagen single siRNA	1.44	1.38
53	Tnfrsf25	5	qiagen single siRNA	1.61	1.95
54	Tnfrsf25	6	qiagen single siRNA	-1.98	-1.96

Copied from the list:
Or1j4 #6, siRNA vendor or control pool qiagen single siRNA, p65 translocation z-score, replicate 1: -0.422
Under “p65 translocation z-score, replicate mean”, Dock2 #6, siRNA vendor or control pool qiagen single siRNA reads -0.906
Result of Tnfrsf25 #6, siRNA vendor or control pool qiagen single siRNA under “p65 translocation z-score, replicate mean”: -1.98
Result for Or1j4 #2, siRNA vendor or control pool ambion single siRNA in “p65 translocation z-score, replicate 1”: -1.69 (active)
For “p65 translocation z-score, replicate 1”, Spag1 #4, siRNA vendor or control pool qiagen single siRNA has 0.43
Dnm2 #6, siRNA vendor or control pool qiagen single siRNA, p65 translocation z-score, replicate 1 → -1.25
